In publication PMC9458460:
For some assays here: No signal at the amounts used counts as a negative. For some assays here: The comparison behind a weaker result is the experiment's own reference, which may not be listed here. For some assays here: For at least one entry, the source does not settle the construct or the ends of the probe. For some assays here: At least one verdict was read from the data and is not stated in words by the source.

What was measured:
[1] = tested on: LARP1 LaM; assay: ITC; settings: 10 mM MES pH 6.3, 100 mM NaCl, 1 mM TCEP (HPLC and NMR buffer; ITC buffer not stated separately), ITC 293 K, NMR 25 C, recombinant protein, residues 323-410, protein details: N-terminal MGSSHHHHHHS
[2] = tested on: LARP1 LaM; assay: crystal structure; settings: 10 mM MES pH 6.3, 100 mM NaCl, 1 mM TCEP (HPLC and NMR buffer); recombinant protein; residues 323-410; protein details: N-terminal MGSSHHHHHHS

AAAAAA [A5A(2'-OMe)]: no binding ([1]; 2'-O-methyl on 3'-terminal A, synthetic backbone).
AAAAAAAAAAA [A11]: binds [2].
AAAAAU [A5U]: binds more weakly [1].
AAAAUA [A4UA]: binds more weakly [1].
AAAUAA [A3UA2]: binds [2].
